No constants are given. Whether binding was seen depends on the method and setting. Binding seen in cells or lysates may run through a third protein. Some entries that bind do so weakly or less than the wild type.
Target: T1, Gonadotropin Regulated Testicular RNA Helicase (GRTH/DDX25) (mouse (endogenous in testis)) (UniProt Q9QY15)
T1 sequence: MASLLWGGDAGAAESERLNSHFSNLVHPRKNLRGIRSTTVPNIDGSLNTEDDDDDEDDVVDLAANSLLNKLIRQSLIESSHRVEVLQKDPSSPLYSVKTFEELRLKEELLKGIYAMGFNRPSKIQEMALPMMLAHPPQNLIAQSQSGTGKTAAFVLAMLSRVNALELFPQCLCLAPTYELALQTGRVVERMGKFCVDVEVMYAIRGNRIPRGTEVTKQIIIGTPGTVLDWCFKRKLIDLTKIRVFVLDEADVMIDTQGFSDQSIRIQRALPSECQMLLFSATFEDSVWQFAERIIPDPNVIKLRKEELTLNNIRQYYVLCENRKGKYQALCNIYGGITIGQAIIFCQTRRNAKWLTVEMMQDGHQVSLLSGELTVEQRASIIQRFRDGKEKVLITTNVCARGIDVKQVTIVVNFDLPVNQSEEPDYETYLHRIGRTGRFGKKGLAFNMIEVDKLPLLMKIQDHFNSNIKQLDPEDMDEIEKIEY
Experiment: co-IP; polysomes from WT mouse testis extracts, pre-cleared with protein A agarose and normal IgG; polyclonal GRTH peptide (aa 465-477) antibody 2 h at 4°C, protein A-agarose overnight at 4°C, three washes; rabbit IgG as control

The chains behind the UniProt entries cited, without tags or fusion partners.
UniProt Q6P5F9: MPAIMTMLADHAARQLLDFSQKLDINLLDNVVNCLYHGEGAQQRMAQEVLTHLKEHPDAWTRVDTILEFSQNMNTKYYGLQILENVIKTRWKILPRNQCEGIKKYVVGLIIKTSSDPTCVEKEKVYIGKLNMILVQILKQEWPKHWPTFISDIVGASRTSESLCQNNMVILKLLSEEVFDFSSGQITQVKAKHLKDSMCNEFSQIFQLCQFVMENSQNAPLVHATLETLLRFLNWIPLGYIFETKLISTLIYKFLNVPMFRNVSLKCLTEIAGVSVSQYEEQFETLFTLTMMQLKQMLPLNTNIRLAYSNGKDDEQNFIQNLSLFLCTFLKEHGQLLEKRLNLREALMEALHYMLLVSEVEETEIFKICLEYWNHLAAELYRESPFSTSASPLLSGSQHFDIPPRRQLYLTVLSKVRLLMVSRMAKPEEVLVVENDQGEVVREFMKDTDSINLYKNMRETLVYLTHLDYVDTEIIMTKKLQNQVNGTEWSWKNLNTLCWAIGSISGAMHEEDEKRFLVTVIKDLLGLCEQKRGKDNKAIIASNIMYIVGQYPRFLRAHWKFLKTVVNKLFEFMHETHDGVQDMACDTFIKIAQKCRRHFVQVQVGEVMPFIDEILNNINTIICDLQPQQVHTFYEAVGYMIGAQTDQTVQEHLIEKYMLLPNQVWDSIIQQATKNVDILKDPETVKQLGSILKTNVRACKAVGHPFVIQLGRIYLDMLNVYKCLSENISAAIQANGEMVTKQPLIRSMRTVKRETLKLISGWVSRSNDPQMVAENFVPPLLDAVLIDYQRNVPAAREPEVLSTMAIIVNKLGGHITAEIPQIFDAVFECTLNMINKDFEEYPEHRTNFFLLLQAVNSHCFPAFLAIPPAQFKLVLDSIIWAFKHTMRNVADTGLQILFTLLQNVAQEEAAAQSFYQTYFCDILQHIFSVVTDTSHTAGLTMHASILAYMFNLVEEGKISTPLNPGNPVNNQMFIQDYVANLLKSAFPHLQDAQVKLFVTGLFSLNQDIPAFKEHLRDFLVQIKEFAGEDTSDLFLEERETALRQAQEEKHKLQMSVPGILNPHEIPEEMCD

binding: binds
Substance: CRM1 (from UniProt Q6P5F9 1-1071)
